Measured values taken from PubChem BioAssay AID662 (National Center for Advancing Translational Sciences (NCATS), 2007).
The other results are listed elsewhere or left out. Shown are side measurements of this screen, not its main read-out; they come without a call. Compounds called inactive in the main read-out are mostly missing here. Words in brackets tell the shape of the fitted curve; partial curves, single points and poor fits give uncertain potencies.

Test: Cell signaling CRE-BLA (Fsk stim)
Settings: CHO CRE-bla reporter (cAMP response element driving beta-lactamase), forskolin EC10, beta-lactamase ratio; measured here: 460 nm blue channel
Outline: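 CRE-bla CHO cells stimulated with EC10 NKH 477 (water-soluble forskolin) and compound titrations, 3 h at 37C; beta-lactamase read with CCF4 after 2 h at room temperature. Activity from 460/530 nm emission ratio, AC50 values for positive or negative modulation.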
With `COC(=O)N1CCC2(CC1)CN(C(=O)Nc1cccc(C#N)c1)C2` the AC50 was 3.98 µM [falling, single point]. In the case of `COC(=O)c1c(NC(=O)c2ccco2)sc(C(=O)N2CCCC2)c1C`, the AC50 was 5.01 µM [rising, partial curve]. For `O=C1CN(C(=O)COC(=O)Cc2ccsc2)c2ccccc2N1`, the AC50 was 0.126 µM [falling, full curve, poor fit]. In the case of `NC(=O)C1CCN(CCC(=O)Nc2cccc(Cl)c2)CC1`, the AC50 was 2.51 µM [falling, partial curve]. In the case of `CCOc1ccccc1OCc1nn2c(-c3ccc(C)cc3)nnc2s1`, the AC50 was 25.1 µM [rising, single point]. For `CC(=O)c1cc2c(cc1NC(=O)c1cc3nc(C(C)C)cc(C(F)(F)F)n3n1)OCO2`, the AC50 was 5.01 µM [rising, partial curve]. For `Cc1ccc(-c2nnc3c4ccccc4c(C)nn23)cc1S(=O)(=O)N1CCN(CCO)CC1`, the AC50 was 3.16 µM [rising, full curve]. For `COc1cccc(C(CC(=O)NCCN2CCOCC2)NS(=O)(=O)c2ccc(C)cc2)c1OC` (configuration not stated), the AC50 was 0.00398 µM [falling, full curve]. With `CCc1ccc(S(=O)(=O)NCc2cn3ccccc3n2)s1` the AC50 was 25.1 µM [rising, single point]. In the case of `O=c1nc(N2CCOCC2)ccn1-c1nc(-c2ccccc2)oc1-c1ccccc1`, the AC50 was 0.2 µM [rising, full curve, poor fit]. In the case of `O=c1[nH]c2c(cc1CNCCN1CCOCC1)c(-c1cccc(F)c1)nn2-c1ccccc1`, the AC50 was 7.94 µM [falling, partial curve]. For `Cc1cc(-c2ccccc2)nc(N2CCN(c3ccccn3)CC2)n1`, the AC50 was 3.16 µM [rising, single point]. In the case of `Cn1c(=O)c2c(nc(CN3CCN(Cc4ccccc4)CC3)n2Cc2cccc(Cl)c2)n(C)c1=O`, the AC50 was 10 µM [rising, partial curve]. For `CCSc1nncn1/N=C/c1ccc(OC)c(OC)c1`, the AC50 was 12.6 µM [rising, partial curve]. With `CCN(CC)C(=O)c1cn(C)c(=O)c2cc(OC)c(OC)cc12` the AC50 was 10 µM [rising, partial curve]. In the case of `Cc1ccc(Cn2nnc3c(=O)[nH]c(C4CCN(C(=O)Cc5cccs5)CC4)nc32)cc1`, the AC50 was 12.6 µM [rising, partial curve]. With `CCN(CC)S(=O)(=O)c1cccc(C(=O)OCc2cc(=O)n3nc(C)sc3n2)c1` the AC50 was 12.6 µM [rising, partial curve, poor fit]. With `CCCC(=O)Nc1ccc(N2CCN(C(=O)c3cccs3)CC2)cc1` the AC50 was 0.0398 µM [falling, partial curve, poor fit]. In the case of `COc1ccc(-n2c(Cc3cccn3C)nnc2SCC(=O)Nc2ccc(C(C)=O)cc2)cc1`, the AC50 was 5.01 µM [falling, partial curve]. For `Cc1ccccc1CSc1nncn1N`, the AC50 was 6.31 µM [rising, single point]. In the case of `CC1CCCCN1Cc1nc2c(c(=O)n(C)c(=O)n2C)n1Cc1c(F)cccc1Cl` (configuration not stated), the AC50 was 10 µM [rising, partial curve]. With `CCOC(=O)c1c(C)[nH]c(C(=O)Cn2c(=O)c3c(ncn3CC)n(Cc3ccccc3)c2=O)c1C` the AC50 was 3.16 µM [rising, partial curve]. In the case of `COc1cc2c(C(=O)NCc3ccccn3)cn(C)c(=O)c2cc1OC`, the AC50 was 10 µM [rising, partial curve]. With `Cc1ccnc(-n2c(CCN3C(=O)c4ccccc4C3=O)nc3ccccc3c2=O)c1` the AC50 was 7.94 µM [rising, partial curve]. With `Cc1cccc(OCCCC(=O)Nc2ccc(N3CCOCC3)cc2)c1` the AC50 was 0.398 µM [falling, full curve]. With `Cc1sc2ncnc(SCC(=O)N3CCCC3)c2c1C` the AC50 was 12.6 µM [rising, partial curve]. For `COc1ccc(-c2nc3cnc(N4CCNCC4)nc3n(Cc3cccc(OC)c3)c2=O)cc1`, the AC50 was 0.631 µM [rising, full curve]. In the case of `CCC(CC)NC(=O)c1cc(OC)c(OC)c(OC)c1`, the AC50 was 25.1 µM [rising, single point]. With `CCOC(=O)N1CCC2(CC1)C(C#N)=C(N)Oc1c2c(C)nn1-c1cccc(Cl)c1` the AC50 was 5.01 µM [falling, partial curve]. For `Cn1nnnc1Sc1ncnc2scc(-c3ccccc3)c12`, the AC50 was 2 µM [rising, full curve]. With `Cn1c(-c2ccc3ccccc3n2)nc2cnccc21` the AC50 was 6.31 µM [rising, partial curve]. With `COC(=O)[C@@]1(Cc2ccc(OC)cc2)[C@H]2c3cc(C(=O)N(C)C)n(C)c3C[C@H]2CN1C(=O)c1ccccc1` the AC50 was 10 µM [rising, partial curve]. With `CC1(C)CC(=O)C(C=Nc2ccc3cn[nH]c3c2)=C(O)C1` the AC50 was 10 µM [falling, partial curve]. In the case of `C1=C(c2cccc3ccccc23)N2CCN=C2S1`, the AC50 was 6.31 µM [falling, partial curve]. For `Cc1nc2nc(C)c(CCC(=O)NCc3ccc4c(c3)OCO4)c(C)n2n1`, the AC50 was 2.51 µM [falling, full curve]. In the case of `O=C(CSc1nnc(-c2ccccn2)n1-c1ccccc1)Nc1ccc2c(c1)OCO2`, the AC50 was 10 µM [rising, single point]. For `O=C(NCc1ccco1)Nc1cccs1`, the AC50 was 10 µM [falling, partial curve]. With `CCCC(=O)Nc1nc(C(=O)OCC)cs1` the AC50 was 0.251 µM [falling, partial curve]. In the case of `COc1ccc2[nH]cc(CCNc3ncncc3-c3ccccc3C)c2c1`, the AC50 was 12.6 µM [falling, single point]. With `CC(=O)Oc1ccccc1N1C(=O)c2ccc(C(=O)O)cc2C1=O` the AC50 was 1 µM [falling, full curve, poor fit]. With `COc1ccc(Oc2ncc3nc(C)c(=O)n(CCc4ccccc4)c3n2)cc1` the AC50 was 5.01 µM [rising, partial curve]. In the case of `CNC(=O)c1ccccc1NC(=O)c1ccc(C)c(S(=O)(=O)N2CCCCC2)c1`, the AC50 was 10 µM [rising, single point]. For `N#Cc1c(N2CCN(C(=O)c3ccco3)CC2)nc(-c2ccccc2)c2c1CCCC2`, the AC50 was 20 µM [falling, single point]. With `C=CCSc1nnc(CSc2nc3sc4c(c3c(=O)[nH]2)CCCC4)n1-c1ccccc1` the AC50 was 12.6 µM [rising, partial curve]. With `COc1cc(S(=O)(=O)N2CCCCCC2)ccc1Cl` the AC50 was 3.98 µM [rising, single point]. With `C=CCc1cc(C)ccc1OCC(O)CN1CCN(c2ccccc2)CC1` (configuration not stated) the AC50 was 0.398 µM [falling, full curve, poor fit]. In the case of `Cc1nc2cnc(N(C)C)nc2n(C)c1=O`, the AC50 was 10 µM [rising, partial curve]. In the case of `O=C(CN1CCC(c2nc3ccccc3[nH]2)CC1)NCc1ccc2c(c1)OCO2`, the AC50 was 12.6 µM [falling, single point]. With `CCOC(=O)c1cc(C#N)c(N)nc1C` the AC50 was 2.51 µM [rising, full curve]. With `COc1cc(-c2nnc3sc(-c4ccccn4)nn23)cc(OC)c1OC` the AC50 was 0.00398 µM [rising, full curve]. For `CCN(CC)c1c(-c2ccccc2)c2cc(C)ccc2[nH]c1=O`, the AC50 was 3.98 µM [rising, partial curve]. In the case of `Cc1nc(-c2ccc(NC(=O)c3cccs3)cc2)cs1`, the AC50 was 25.1 µM [rising, single point]. With `COc1ccc2c(-c3ccccc3)cc(N3CCOCC3)nc2c1` the AC50 was 20 µM [rising, single point]. With `COC(=O)COc1nc(C)c2c(c1C#N)CC(C)(C)OC2` the AC50 was 15.8 µM [rising, single point]. With `O=C(CC(c1ccccc1)c1cc(Br)ccc1O)NCc1ccco1` (configuration not stated) the AC50 was 10 µM [falling, partial curve]. With `CN(C)c1ncc2nc(CCc3ccccc3)c(=O)n(CCC#N)c2n1` the AC50 was 10 µM [rising, partial curve]. With `Cn1cc(-c2nc3cnc(Oc4cccc(Cl)c4)nc3n(C3CC3)c2=O)c2ccccc21` the AC50 was 15.8 µM [rising, partial curve]. With `CC(C)NC[C@H](O)c1ccc(O)c(O)c1` the AC50 was 25.1 µM [falling, partial curve]. With `CCn1c(Cc2ccccc2)nnc1SCC(=O)Nc1ccc(S(N)(=O)=O)cc1` the AC50 was 0.631 µM [rising, single point]. With `O=C(NC1CCCCC1)C(c1ccccc1)N(Cc1ccco1)C(=O)Cn1cnc2ccccc21` (configuration not stated) the AC50 was 5.01 µM [rising, single point]. With `COc1ccc(CNc2cc(-c3ccccc3Cl)ncn2)c(OC)c1` the AC50 was 5.01 µM [rising, partial curve]. In the case of `O=C(COc1ncnc2ccccc12)NC1CCS(=O)(=O)C1` (configuration not stated), the AC50 was 0.631 µM [falling, single point]. In the case of `COCCCNC(=O)C1CCN(S(=O)(=O)c2c(C)noc2/C=C\c2ccc(OC)cc2)CC1`, the AC50 was 10 µM [rising, partial curve]. For `C=CCn1cnc2c(NCc3ccccc3)ncnc21`, the AC50 was 25.1 µM [rising, single point]. In the case of `COc1cc(C2N(c3ccccc3)CCN2c2ccccc2)ccc1OC(C)=O`, the AC50 was 6.31 µM [falling, partial curve]. For `COc1ccc(NC(=O)Cc2nn(C)c(=O)c3ccccc23)c2ncccc12`, the AC50 was 1 µM [rising, partial curve]. For `C[C@@H](C(=O)Nc1ccc2ccccc2c1)[C@@H]1C[C@@]1(C)[C@@H](NC(=O)c1cnccn1)c1ccccc1`, the AC50 was 5.01 µM [falling, full curve].
